The results in this text go back to article PMC8881573, “Inhibition of SRP-dependent protein secretion by the bacterial alarmone (p)ppGpp” (Nature Communications, 2022).

By UniProt entry, the sequences of proteins in these tests, tags left out. Where a name states a change or a piece, a line headed by the entry shows the natural chain unless it says otherwise.
UniProt P10121: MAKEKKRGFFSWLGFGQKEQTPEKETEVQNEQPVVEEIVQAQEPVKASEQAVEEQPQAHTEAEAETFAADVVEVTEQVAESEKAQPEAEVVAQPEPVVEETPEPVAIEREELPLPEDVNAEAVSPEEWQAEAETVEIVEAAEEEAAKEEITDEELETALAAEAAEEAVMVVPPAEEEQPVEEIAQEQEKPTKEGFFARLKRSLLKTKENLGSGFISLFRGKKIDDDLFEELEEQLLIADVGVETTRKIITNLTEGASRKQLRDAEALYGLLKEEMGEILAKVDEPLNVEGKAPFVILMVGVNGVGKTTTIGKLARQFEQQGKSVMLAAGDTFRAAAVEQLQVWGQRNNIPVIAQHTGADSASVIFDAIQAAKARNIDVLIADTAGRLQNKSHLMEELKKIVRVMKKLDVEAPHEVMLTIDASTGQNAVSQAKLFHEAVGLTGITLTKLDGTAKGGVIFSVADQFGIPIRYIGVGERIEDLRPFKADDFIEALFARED

Results are given in words; binding and its absence hold for the method and conditions named. For some assays here: Binding calls can cover weak binding; strength is not graded here.

The target in experiment [1] is NG domain of (Ec)FtsY (E. coli) (UniProt P10121). Nature of the experiment: SEC; NG domains at 100 µM each (Fig. 3g) or 50 µM each (Fig. 3h, i) with 0.25, 0.5 or 1 mM GMPPNP, 30 min at room temperature; 20 mM HEPES pH 7.5, 200 mM NaCl, 20 mM MgCl2, 20 mM KCl; S200 300/10 GL at 4 °C; both purified. A general note: SEC sorts molecules by how far they enter the pores of the column.

For experiment [2] the target is unchanged. As to the kind of experiment: condition: only with ppGpp or pppGpp at more than twofold the GMPPNP concentration; SEC; as a1, with ppGpp or pppGpp added at more than twofold the GMPPNP concentration; half-inhibited at equal (p)ppGpp/GMPPNP ratios; both purified.

B1: NG domain of (Ec)Ffh (domain or fragment, UniProt P0AGD7 2-299)
chain: FDNLTDRLSRTLRNISGRGRLTEDNVKDTLREVRMALLEADVALPVVREFINRVKEKAVGHEVNKSLTPGQEFVKIVRNELVAAMGEENQTLNLAAQPPAVVLMAGLQGAGKTTSVGKLGKFLREKHKKKVLVVSADVYRPAAIKQLETLAEQVGVDFFPSDVGQKPVDIVNAALKEAKLKFYDVLLVDTAGRLHVDEAMMDEIKQVHASINPVETLFVVDAMTGQDAANTAKAFNEALPLTGVVLTKVDGDARGGAALSIRHITGKPIKFLGVGEKTEALEPFHPDRIASRILGMGD
In the case of B1, the binding result is reported as “binds” in experiment [1] and “no binding” in experiment [2].
